{
  "source": "the supplement of paper PMC8728848",
  "assay_in_all_cases": "glycan array binding signal (z-score within array); higher = stronger binding",
  "settings_in_all_cases": "glycan notation: IUPAC condensed, linker removed",
  "key": {"[1]": {"biological_target": "Neu5Ac(a2-3)Gal(b1-3)]Neu5Ac(a2-3)Gal(b1-4)]GlcNAc", "outline": "(§1)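 Glycan array data were curated from 3228 arrays in the Consortium for Functional Glycomics database and kept only where the protein sequence was available. Glycan names were converted to IUPAC-condensed notation, and columns mapping to the same glycan were averaged. The binding signal is a within-array Z-score, averaged across arrays of the same protein sequence at different concentrations or buffers and across linkers. Negative Z-scores can be read as non-binding.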"}, "Neu5Ac(a2-3)Gal(b1-4)Glc": {"biological_target": "Neu5Ac(a2-3)Gal(b1-4)Glc", "outline": "as §1"}, "[2]": {"biological_target": "Neu5Ac(a2-3)Gal(b1-4)GlcNAc", "outline": "as §1"}, "[3]": {"biological_target": "Neu5Ac(a2-3)Gal(b1-4)GlcNAc(b1-2)Man", "outline": "as §1"}, "[4]": {"biological_target": "Neu5Ac(a2-3)Gal(b1-4)GlcNAc(b1-2)Man(a1-3)[GlcNAc(b1-4)][Neu5Ac(a2-3)Gal(b1-4)GlcNAc(b1-2)Man(a1-6)]Man(b1-4)GlcNAc(b1-4)GlcNAc", "outline": "as §1"}, "[5]": {"biological_target": "Neu5Ac(a2-3)Gal(b1-4)GlcNAc(b1-2)Man(a1-3)[Neu5Ac(a2-3)Gal(b1-4)GlcNAc(b1-2)Man(a1-6)]Man(b1-4)GlcNAc(b1-4)GlcNAc", "outline": "as §1"}, "[6]": {"biological_target": "Neu5Ac(a2-3)Gal(b1-4)GlcNAc(b1-2)Man(a1-3)[Neu5Ac(a2-3)Gal(b1-4)GlcNAc(b1-2)Man(a1-6)]Man(b1-4)GlcNAc(b1-4)[Fuc(a1-6)]GlcNAc", "outline": "as §1"}, "[7]": {"biological_target": "Neu5Ac(a2-3)Gal(b1-4)GlcNAc(b1-2)Man(a1-3)[Neu5Ac(a2-6)Gal(b1-4)GlcNAc(b1-2)Man(a1-6)]Man(b1-4)GlcNAc(b1-4)GlcNAc", "outline": "as §1"}, "[8]": {"biological_target": "Neu5Ac(a2-3)Gal(b1-4)GlcNAc(b1-2)[Neu5Ac(a2-3)Gal(b1-4)GlcNAc(b1-4)]Man(a1-3)[GlcNAc(b1-4)][Neu5Ac(a2-3)Gal(b1-4)GlcNAc(b1-2)[Neu5Ac(a2-3)Gal(b1-4)GlcNAc(b1-6)]Man(a1-6)]Man(b1-4)GlcNAc(b1-4)GlcNAc", "outline": "as §1"}, "[9]": {"biological_target": "Neu5Ac(a2-3)Gal(b1-4)GlcNAc(b1-2)[Neu5Ac(a2-3)Gal(b1-4)GlcNAc(b1-4)]Man(a1-3)[GlcNAc(b1-4)][Neu5Ac(a2-3)Gal(b1-4)GlcNAc(b1-4)Man(a1-6)]Man(b1-4)GlcNAc(b1-4)GlcNAc", "outline": "as §1"}, "[10]": {"biological_target": "Neu5Ac(a2-3)Gal(b1-4)GlcNAc(b1-2)[Neu5Ac(a2-3)Gal(b1-4)GlcNAc(b1-6)]Man(a1-6)[Neu5Ac(a2-3)Gal(b1-4)GlcNAc(b1-2)Man(a1-3)][GlcNAc(b1-4)]Man(b1-4)GlcNAc(b1-4)GlcNAc", "outline": "as §1"}, "[11]": {"biological_target": "Neu5Ac(a2-3)Gal(b1-4)GlcNAc(b1-3)Gal", "outline": "as §1"}, "[12]": {"biological_target": "Neu5Ac(a2-3)Gal(b1-4)GlcNAc(b1-3)Gal(b1-3)GlcNAc", "outline": "as §1"}, "[13]": {"biological_target": "Neu5Ac(a2-3)Gal(b1-4)GlcNAc(b1-3)Gal(b1-4)GlcNAc", "outline": "as §1"}, "[14]": {"biological_target": "Neu5Ac(a2-3)Gal(b1-4)GlcNAc(b1-3)Gal(b1-4)GlcNAc(b1-2)Man(a1-3)[Neu5Ac(a2-3)Gal(b1-4)GlcNAc(b1-3)Gal(b1-4)GlcNAc(b1-2)Man(a1-6)]Man(b1-4)GlcNAc(b1-4)GlcNAc", "outline": "as §1"}, "[15]": {"biological_target": "Neu5Ac(a2-3)Gal(b1-4)GlcNAc(b1-3)Gal(b1-4)GlcNAc(b1-3)Gal(b1-4)GlcNAc", "outline": "as §1"}, "[16]": {"biological_target": "Neu5Ac(a2-3)Gal(b1-4)GlcNAc(b1-3)Gal(b1-4)GlcNAc(b1-3)Gal(b1-4)GlcNAc(b1-2)Man(a1-3)[Neu5Ac(a2-3)Gal(b1-4)GlcNAc(b1-3)Gal(b1-4)GlcNAc(b1-3)Gal(b1-4)GlcNAc(b1-2)Man(a1-6)]GalNAc", "outline": "as §1"}, "[17]": {"biological_target": "Neu5Ac(a2-3)Gal(b1-4)GlcNAc(b1-3)Gal(b1-4)GlcNAc(b1-3)GalNAc", "outline": "as §1"}, "[18]": {"biological_target": "Neu5Ac(a2-3)Gal(b1-4)GlcNAc(b1-3)Gal(b1-4)GlcNAc(b1-3)[Neu5Ac(a2-3)Gal(b1-4)GlcNAc(b1-3)Gal(b1-4)GlcNAc(b1-6)]GalNAc", "outline": "as §1"}, "[19]": {"biological_target": "Neu5Ac(a2-3)Gal(b1-4)GlcNAc(b1-3)Gal(b1-4)GlcNAc(b1-6)[Gal(b1-3)]GalNAc", "outline": "as §1"}, "[20]": {"biological_target": "Neu5Ac(a2-3)Gal(b1-4)GlcNAc(b1-3)Gal(b1-4)[Fuc(a1-3)]GlcNAc", "outline": "as §1"}, "[21]": {"biological_target": "Neu5Ac(a2-3)Gal(b1-4)GlcNAc(b1-3)GalNAc", "outline": "as §1"}, "[22]": {"biological_target": "Neu5Ac(a2-3)Gal(b1-4)GlcNAc(b1-3)[Neu5Ac(a2-3)Gal(b1-4)GlcNAc(b1-6)]GalNAc", "outline": "as §1"}, "[23]": {"biological_target": "Neu5Ac(a2-3)Gal(b1-4)GlcNAc(b1-6)GalNAc", "outline": "as §1"}, "[24]": {"biological_target": "Neu5Ac(a2-3)Gal(b1-4)GlcNAc(b1-6)[Gal(b1-3)]GalNAc", "outline": "as §1"}, "[25]": {"biological_target": "Neu5Ac(a2-3)Gal(b1-4)GlcNAc(b1-6)[Neu5Ac(a2-3)Gal(b1-3)]GalNAc", "outline": "as §1"}, "[26]": {"biological_target": "Neu5Ac(a2-3)Gal(b1-4)GlcNAc6S", "outline": "as §1"}, "[27]": {"biological_target": "Neu5Ac(a2-3)Gal(b1-4)[Fuc(a1-3)]GlcNAc", "outline": "as §1"}, "[28]": {"biological_target": "Neu5Ac(a2-3)Gal(b1-4)[Fuc(a1-3)]GlcNAc(b1-2)Man", "outline": "as §1"}, "[29]": {"biological_target": "Neu5Ac(a2-3)Gal(b1-4)[Fuc(a1-3)]GlcNAc(b1-3)Gal", "outline": "as §1"}, "[30]": {"biological_target": "Neu5Ac(a2-3)Gal(b1-4)[Fuc(a1-3)]GlcNAc(b1-3)Gal(b1-4)GlcNAc", "outline": "as §1"}, "[31]": {"biological_target": "Neu5Ac(a2-3)Gal(b1-4)[Fuc(a1-3)]GlcNAc(b1-3)Gal(b1-4)[Fuc(a1-3)]GlcNAc(b1-3)Gal(b1-4)[Fuc(a1-3)]GlcNAc", "outline": "as §1"}, "[32]": {"biological_target": "Neu5Ac(a2-3)Gal(b1-4)[Fuc(a1-3)]GlcNAc(b1-3)GalNAc", "outline": "as §1"}, "[33]": {"biological_target": "Neu5Ac(a2-3)Gal(b1-4)[Fuc(a1-3)]GlcNAc(b1-6)[Gal(b1-3)]GalNAc", "outline": "as §1"}, "[34]": {"biological_target": "Neu5Ac(a2-3)Gal(b1-4)[Fuc(a1-3)]GlcNAc(b1-6)[Neu5Ac(a2-3)Gal(b1-3)]GalNAc", "outline": "as §1"}, "[35]": {"biological_target": "Neu5Ac(a2-3)Gal(b1-4)[Fuc(a1-3)]GlcNAc6S", "outline": "as §1"}, "[36]": {"biological_target": "Neu5Ac(a2-3)Gal6S(b1-4)GlcNAc", "outline": "as §1"}, "[37]": {"biological_target": "Neu5Ac(a2-3)Gal6S(b1-4)[Fuc(a1-3)]GlcNAc", "outline": "as §1"}},
  "note": "This is one part of the list.",
  "data": [
    {"binder": "Mnn9-2N3 (Aspergillus fumigatus) (protein) MAVARRMRRTNPITLLLAAILAIGFFIFVLSPSTTSASPVKAGSASSSSTSQQRREDNAAENPLSPPTKPFFKSQPVRHDGQQAPPPVVQYNLNQLSSTSTSAANGERILILTPMARFVPEYWDNVVKLTYPHELISIGFIIPKNKEGNAALAALEAAIAKTQSGPIDKRFASISILRQDFEPPLQSQDEKERHKISNQKARRESMSRARNSLLFTTLGPATAWVLWLDADIVETPPTLIQDLTAHDHPVLVPNCYQRYYNSEKKKMDVRPYDYNSWIDSSTAQSMAAEMGPDEILLEGYAEMPTYRTLMAHLADTANPNPKKVIELDGVGGTALMVKAEVHRDGAMFPAFPFYHLVETEGFAKMAKRLGYSVYGLPDYFVSRNFFFFFFFFFFG", "values": [
      {"measurement": "glycan array binding signal (z-score)", "setting": "[1]", "value": -0.07},
      {"measurement": "glycan array binding signal (z-score)", "setting": "Neu5Ac(a2-3)Gal(b1-4)Glc", "value": -0.071},
      {"measurement": "glycan array binding signal (z-score)", "setting": "[2]", "value": 0.054},
      {"measurement": "glycan array binding signal (z-score)", "setting": "[3]", "value": 0.051},
      {"measurement": "glycan array binding signal (z-score)", "setting": "[4]", "value": -1.34},
      {"measurement": "glycan array binding signal (z-score)", "setting": "[5]", "value": -0.021},
      {"measurement": "glycan array binding signal (z-score)", "setting": "[6]", "value": 1.24},
      {"measurement": "glycan array binding signal (z-score)", "setting": "[7]", "value": 0.159},
      {"measurement": "glycan array binding signal (z-score)", "setting": "[8]", "value": -0.547},
      {"measurement": "glycan array binding signal (z-score)", "setting": "[9]", "value": -0.682},
      {"measurement": "glycan array binding signal (z-score)", "setting": "[10]", "value": -0.217},
      {"measurement": "glycan array binding signal (z-score)", "setting": "[11]", "value": 0.292},
      {"measurement": "glycan array binding signal (z-score)", "setting": "[12]", "value": 0.123},
      {"measurement": "glycan array binding signal (z-score)", "setting": "[13]", "value": -0.135},
      {"measurement": "glycan array binding signal (z-score)", "setting": "[14]", "value": -0.069},
      {"measurement": "glycan array binding signal (z-score)", "setting": "[15]", "value": 0.234},
      {"measurement": "glycan array binding signal (z-score)", "setting": "[16]", "value": -1.05},
      {"measurement": "glycan array binding signal (z-score)", "setting": "[17]", "value": -2.49},
      {"measurement": "glycan array binding signal (z-score)", "setting": "[18]", "value": -0.764},
      {"measurement": "glycan array binding signal (z-score)", "setting": "[19]", "value": -0.542},
      {"measurement": "glycan array binding signal (z-score)", "setting": "[20]", "value": 0.58},
      {"measurement": "glycan array binding signal (z-score)", "setting": "[21]", "value": -0.007},
      {"measurement": "glycan array binding signal (z-score)", "setting": "[22]", "value": -2.1},
      {"measurement": "glycan array binding signal (z-score)", "setting": "[23]", "value": -0.242},
      {"measurement": "glycan array binding signal (z-score)", "setting": "[24]", "value": -0.181},
      {"measurement": "glycan array binding signal (z-score)", "setting": "[25]", "value": -0.079},
      {"measurement": "glycan array binding signal (z-score)", "setting": "[26]", "value": -0.221},
      {"measurement": "glycan array binding signal (z-score)", "setting": "[27]", "value": 0.761},
      {"measurement": "glycan array binding signal (z-score)", "setting": "[28]", "value": 0.079},
      {"measurement": "glycan array binding signal (z-score)", "setting": "[29]", "value": 0.562},
      {"measurement": "glycan array binding signal (z-score)", "setting": "[30]", "value": -0.809},
      {"measurement": "glycan array binding signal (z-score)", "setting": "[31]", "value": 1.99},
      {"measurement": "glycan array binding signal (z-score)", "setting": "[32]", "value": 0.169},
      {"measurement": "glycan array binding signal (z-score)", "setting": "[33]", "value": 0.502},
      {"measurement": "glycan array binding signal (z-score)", "setting": "[34]", "value": -0.206},
      {"measurement": "glycan array binding signal (z-score)", "setting": "[35]", "value": -0.011},
      {"measurement": "glycan array binding signal (z-score)", "setting": "[36]", "value": 0.051},
      {"measurement": "glycan array binding signal (z-score)", "setting": "[37]", "value": 2.08}
    ]}
  ]
}
